{"source": "PubChem BioAssay AID320", "about": "(DTP/NCI, 2004)", "tested_on": "BDF1 mice, P329 reticulum cell sarcoma ip, survival T/C", "test": "NCI In Vivo Anticancer Drug Screen. Data for tumor model P329 Reticulum Cell Sarcoma (intraperitoneal) in B6D2F1 (BDF1) mice", "details": "T/C endpoint: median survival time, schedule: Q01DX010 (ip), vehicle: saline, higher T/C = longer survival", "description": "The antitumor activity of compounds was measured in mice bearing transplantable tumors. Survival or tumor size were measured and the results are expressed as the measurement made in the treated group (T) divided by the measurement made in the vehicle treated control group (C). The tumor model used in this assay is P329 Reticulum Cell Sarcoma (intraperitoneal) in B6D2F1 (BDF1) mice", "note": "The list is a part of this screen's results and no random one: it gathers some chemical classes. Not every dose and run of a compound is shown. T/C gives the treated animals as a percentage of the vehicle group. Some entries give survivors of the animals treated and no T/C: the source files T/C as zero there, which appears to mark a toxic dose or a test without result, not a measured value. Some doses without a T/C left all or most animals alive at the check, yet need not have been tolerated: survival well below the control is almost never listed, so the zero probably covers shortened survival too. Survivors were counted at the toxicity check, usually on the fifth day, unless a day is given; later deaths do not show. Schedule codes are those of the source, read here as Q, the interval in days (D) or hours (H), X, the number of doses. Some entries hold several experiments; the values are given in rising order. Where survival is the endpoint, the PubChem record calls one and a half times the control and up active, and a quarter to a half above the control has no call in these data; cut-offs in other NCI protocols can differ. Some T/C values carry the count of animals alive at the toxicity check (mostly the fifth day); where neither a count nor a note follows, no animal had died by that day."}
{"smiles": "CN(N=O)C(=N)N[N+](=O)[O-]", "values": [{"measurement": "T/C", "setting": "dose: 8.0 mg/kg/injection", "result": "130 and 138 % of control"}, {"measurement": "T/C", "setting": "dose: 16.0 mg/kg/injection", "result": "153 % of control"}, {"measurement": "survivor count", "setting": "dose: 16.0 mg/kg/injection", "result": "6 of 6"}, {"measurement": "survivor count", "setting": "dose: 32.0 mg/kg/injection", "result": "6 of 6"}, {"measurement": "survivor count", "setting": "dose: 64.0 mg/kg/injection", "result": "5 of 6 and 6 of 6"}]}
{"smiles": "CC[C@@H](C)[C@@H]1NC(=O)/C(=C(\\C)O)C1=O.c1ccc(CNCCNCc2ccccc2)cc1", "values": [{"measurement": "T/C", "setting": "dose: 10.0 mg/kg/injection", "result": "107 % of control"}, {"measurement": "T/C", "setting": "dose: 14.0 mg/kg/injection", "result": "103 % of control"}, {"measurement": "T/C", "setting": "dose: 20.0 mg/kg/injection", "result": "107 % of control"}, {"measurement": "T/C", "setting": "dose: 30.0 mg/kg/injection", "result": "107 % of control"}]}
{"smiles": "Cc1[nH]c(=O)[nH]c(=O)c1N(CCCl)CCCl", "values": [{"measurement": "T/C", "setting": "dose: 125.0 micrograms/kg/injection", "result": "93 % of control"}, {"measurement": "T/C", "setting": "dose: 250.0 micrograms/kg/injection", "result": "96 % of control"}, {"measurement": "T/C", "setting": "dose: 500.0 micrograms/kg/injection", "result": "106 % of control"}, {"measurement": "T/C", "setting": "dose: 1000.0 micrograms/kg/injection", "result": "118 % of control"}]}
{"smiles": "NC1CCCCC1.O=P(O)(N(CCCl)CCCl)N1CC1", "values": [{"measurement": "T/C", "setting": "dose: 1.25 mg/kg/injection", "result": "107 % of control"}, {"measurement": "T/C", "setting": "dose: 2.5 mg/kg/injection", "result": "115 and 132 % of control"}, {"measurement": "T/C", "setting": "dose: 5.0 mg/kg/injection", "result": "119 [5 of 6 alive] and 125 % of control"}, {"measurement": "T/C", "setting": "dose: 10.0 mg/kg/injection", "result": "134 and 139 % of control"}, {"measurement": "T/C", "setting": "dose: 20.0 mg/kg/injection", "result": "130 % of control"}]}
